# Data source: PubChem BioAssay AID743121 (NCATS, 2013)
# Purpose: 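Partners whose loss is lethal together with topoisomerase I blockade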 (primary screen)
# Cells: MDA-MB-231 cells, a human breast cancer line
# Reagent: single siRNA against human genes, 20 nM siRNA (0.8 pmol per well)
# Time to read-out: 120 h (drug added 48 h after transfection, read 72 h later)
# Conditions: camptothecin 20 nM (about EC30) for 72 h; vehicle 0.1% DMSO in parallel plates
# Read-out: 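CellTiter-Glo ATP signal, scaled to control siRNA as percent viability; sensitisation given as log2 of untreated divided by camptothecin-treated viability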
# Reading the numbers: log2 vehicle/camptothecin viability: higher = stronger sensitisation to camptothecin; viability with camptothecin and viability without drug: higher = more viable cells
# Rule for the call: 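Active genes have an RSA gene-level p-value below 0.001, computed from the ratios of their separate siRNAs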
# The deposit covers about 26,000 reagents; shown is a part drawn at random. In the full data, 167 (0.63%) got an active call. 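Calls are per gene from RSA p-values that are not deposited; an individual active-marked siRNA can sensitise only weakly.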 Unmarked entries are inactive. No sequences are given here.
gene,PubChem SID,log2 vehicle/camptothecin viability,viability with camptothecin (% of control),viability without drug (% of control)
TMED1 (GeneID 11018),SID164414976,-0.385,124,95.3
TMED1 (GeneID 11018),SID164414977,-0.0741,82.8,78.6
TMED1 (GeneID 11018),SID164414979,-0.418,120,90.2
TMED1 (GeneID 11018),SID164414980,-0.0051,84.8,84.5
EFNA3 (GeneID 1944),SID164362770,-0.314,78.2,62.9
EFNA3 (GeneID 1944),SID164362771,0.199,83.3,95.6
EFNA3 (GeneID 1944),SID164362772,0.0943,59,63
EFNA3 (GeneID 1944),SID164362773,0.244,52.3,61.9
USF2 (GeneID 7392),SID164393613,-0.82,69.5,39.4
USF2 (GeneID 7392),SID164393616,0.0765,96.4,102
USF2 (GeneID 7392),SID164393618,-0.407,67.9,51.2
CDKL5 (GeneID 6792),SID164390205,-0.249,123,103
CDKL5 (GeneID 6792),SID164390207,0.0558,60,62.3
CDKL5 (GeneID 6792),SID164390210,-0.101,92.7,86.4
CDKL5 (GeneID 6792),SID164390211,-0.499,67.9,48
PCDH7 (GeneID 5099),SID164379644,0.126,69.6,76
PCDH7 (GeneID 5099),SID164379647,0.318,81.7,102
PCDH7 (GeneID 5099),SID164379649,-0.142,70.7,64
PCDH7 (GeneID 5099),SID164379653,-0.444,89.9,66.1
LIG3 (GeneID 3980),SID164373845,-0.346,52.4,41.2
LIG3 (GeneID 3980),SID164373846,-0.542,61,41.9
LIG3 (GeneID 3980),SID164373849,0.596,25.7,38.8
LIG3 (GeneID 3980),SID164373851,-0.179,77.5,68.4
OR10H1 (GeneID 26539),SID164460598,-0.154,73,65.6
OR10H1 (GeneID 26539),SID164460599,-0.021,96.1,94.7
OR10H1 (GeneID 26539),SID164460606,0.0891,99.5,106
OR10H1 (GeneID 26539),SID164616110,-0.12,72.9,67.1
PDE3B (GeneID 5140),SID164379860,-0.229,119,101
PDE3B (GeneID 5140),SID164379862,0.0155,59.1,59.8
PDE3B (GeneID 5140),SID164379866,-0.128,55.1,50.5
PDE3B (GeneID 5140),SID164379867,-0.476,67.8,48.7
PTPN2 (GeneID 5771),SID164383844,0.282,56.8,69.1
PTPN2 (GeneID 5771),SID164383845,0.202,89.4,103
PTPN2 (GeneID 5771),SID164383847,-0.183,79.2,69.8
PTPN2 (GeneID 5771),SID164383848,-0.221,112,95.7
PAX6 (GeneID 5080),SID164379517,-0.154,103,92.5
PAX6 (GeneID 5080),SID164379519,0.116,73.9,80
PAX6 (GeneID 5080),SID164379521,0.118,88.3,95.8
PAX6 (GeneID 5080),SID164455531,-0.805,93.3,53.4
GRIK4 (GeneID 2900),SID164367680,0.407,63.5,84.1
GRIK4 (GeneID 2900),SID164367681,-0.506,60.8,42.8
GRIK4 (GeneID 2900),SID164367682,-0.199,38.7,33.7
GRIK4 (GeneID 2900),SID164367684,-0.224,40.4,34.6
NLGN1 (GeneID 22871),SID164444056,-0.372,54.5,42.1
NLGN1 (GeneID 22871),SID164444057,-0.273,127,105
NLGN1 (GeneID 22871),SID164444060,-0.586,92,61.3
DOCK2 (GeneID 1794),SID164361968,-0.388,110,84.2
DOCK2 (GeneID 1794),SID164361969,-0.406,77.3,58.4
DOCK2 (GeneID 1794),SID164361970,0.0172,37.9,38.4
DOCK2 (GeneID 1794),SID164361972,-0.0658,99.4,95
MORC1 (GeneID 27136),SID164462622,-0.123,134,123
MORC1 (GeneID 27136),SID164462623,-0.133,82.1,74.8
MORC1 (GeneID 27136),SID164462625,0.0107,81.9,82.5
BIK (GeneID 638),SID164355311,-0.236,85,72.1
BIK (GeneID 638),SID164355312,0.352,24.3,31
BIK (GeneID 638),SID164355313,-0.489,89.5,63.8
BIK (GeneID 638),SID164355317,-0.323,65.2,52.1
LRRN2 (GeneID 10446),SID164411063,-0.00583,84.2,83.9
LRRN2 (GeneID 10446),SID164411064,-0.427,55.3,41.1
LRRN2 (GeneID 10446),SID164411065,0.0738,111,117
LRRN2 (GeneID 10446),SID164411066,0.0222,68.3,69.4
GK5 (GeneID 256356),SID164606282,-0.092,107,100
GK5 (GeneID 256356),SID164606283,-0.365,126,97.8
GK5 (GeneID 256356),SID164606284,-0.345,83.8,66
GK5 (GeneID 256356),SID164606287,-0.351,85,66.6
DDIT3 (GeneID 1649),SID164361244,-0.491,73.8,52.5
DDIT3 (GeneID 1649),SID164361245,-0.183,108,95.5
DDIT3 (GeneID 1649),SID164361246,0.0426,90.8,93.5
DDIT3 (GeneID 1649),SID164361248,0.136,81.5,89.6

Part of the list above in another layout.
PTPN2 (GeneID 5771) [SID164383847]
- log2 vehicle/camptothecin viability: -0.183
- viability with camptothecin (% of control): 79.2
- viability without drug (% of control): 69.8

PTPN2 (GeneID 5771) [SID164383848]
- log2 vehicle/camptothecin viability: -0.221
- viability with camptothecin (% of control): 112
- viability without drug (% of control): 95.7

PAX6 (GeneID 5080) [SID164379517]
- log2 vehicle/camptothecin viability: -0.154
- viability with camptothecin (% of control): 103
- viability without drug (% of control): 92.5

PAX6 (GeneID 5080) [SID164379519]
- log2 vehicle/camptothecin viability: 0.116
- viability with camptothecin (% of control): 73.9
- viability without drug (% of control): 80

PAX6 (GeneID 5080) [SID164379521]
- log2 vehicle/camptothecin viability: 0.118
- viability with camptothecin (% of control): 88.3
- viability without drug (% of control): 95.8

PAX6 (GeneID 5080) [SID164455531]
- log2 vehicle/camptothecin viability: -0.805
- viability with camptothecin (% of control): 93.3
- viability without drug (% of control): 53.4

GRIK4 (GeneID 2900) [SID164367680]
- log2 vehicle/camptothecin viability: 0.407
- viability with camptothecin (% of control): 63.5
- viability without drug (% of control): 84.1

GRIK4 (GeneID 2900) [SID164367681]
- log2 vehicle/camptothecin viability: -0.506
- viability with camptothecin (% of control): 60.8
- viability without drug (% of control): 42.8

GRIK4 (GeneID 2900) [SID164367682]
- log2 vehicle/camptothecin viability: -0.199
- viability with camptothecin (% of control): 38.7
- viability without drug (% of control): 33.7

GRIK4 (GeneID 2900) [SID164367684]
- log2 vehicle/camptothecin viability: -0.224
- viability with camptothecin (% of control): 40.4
- viability without drug (% of control): 34.6

NLGN1 (GeneID 22871) [SID164444056]
- log2 vehicle/camptothecin viability: -0.372
- viability with camptothecin (% of control): 54.5
- viability without drug (% of control): 42.1
